Reference: article PMC10202830, “Cingulin and paracingulin tether myosins-2 to junctions to mechanoregulate the plasma membrane” (The Journal of Cell Biology, 2023)
These are yes or no findings as the source states them, for the method shown. Sequences can lack the tags named with a protein.

By UniProt entry, the sequences of proteins in these tests, tags left out. Where a name states a change or a piece, a line headed by the entry shows the natural chain unless it says otherwise.
UniProt Q6URW6: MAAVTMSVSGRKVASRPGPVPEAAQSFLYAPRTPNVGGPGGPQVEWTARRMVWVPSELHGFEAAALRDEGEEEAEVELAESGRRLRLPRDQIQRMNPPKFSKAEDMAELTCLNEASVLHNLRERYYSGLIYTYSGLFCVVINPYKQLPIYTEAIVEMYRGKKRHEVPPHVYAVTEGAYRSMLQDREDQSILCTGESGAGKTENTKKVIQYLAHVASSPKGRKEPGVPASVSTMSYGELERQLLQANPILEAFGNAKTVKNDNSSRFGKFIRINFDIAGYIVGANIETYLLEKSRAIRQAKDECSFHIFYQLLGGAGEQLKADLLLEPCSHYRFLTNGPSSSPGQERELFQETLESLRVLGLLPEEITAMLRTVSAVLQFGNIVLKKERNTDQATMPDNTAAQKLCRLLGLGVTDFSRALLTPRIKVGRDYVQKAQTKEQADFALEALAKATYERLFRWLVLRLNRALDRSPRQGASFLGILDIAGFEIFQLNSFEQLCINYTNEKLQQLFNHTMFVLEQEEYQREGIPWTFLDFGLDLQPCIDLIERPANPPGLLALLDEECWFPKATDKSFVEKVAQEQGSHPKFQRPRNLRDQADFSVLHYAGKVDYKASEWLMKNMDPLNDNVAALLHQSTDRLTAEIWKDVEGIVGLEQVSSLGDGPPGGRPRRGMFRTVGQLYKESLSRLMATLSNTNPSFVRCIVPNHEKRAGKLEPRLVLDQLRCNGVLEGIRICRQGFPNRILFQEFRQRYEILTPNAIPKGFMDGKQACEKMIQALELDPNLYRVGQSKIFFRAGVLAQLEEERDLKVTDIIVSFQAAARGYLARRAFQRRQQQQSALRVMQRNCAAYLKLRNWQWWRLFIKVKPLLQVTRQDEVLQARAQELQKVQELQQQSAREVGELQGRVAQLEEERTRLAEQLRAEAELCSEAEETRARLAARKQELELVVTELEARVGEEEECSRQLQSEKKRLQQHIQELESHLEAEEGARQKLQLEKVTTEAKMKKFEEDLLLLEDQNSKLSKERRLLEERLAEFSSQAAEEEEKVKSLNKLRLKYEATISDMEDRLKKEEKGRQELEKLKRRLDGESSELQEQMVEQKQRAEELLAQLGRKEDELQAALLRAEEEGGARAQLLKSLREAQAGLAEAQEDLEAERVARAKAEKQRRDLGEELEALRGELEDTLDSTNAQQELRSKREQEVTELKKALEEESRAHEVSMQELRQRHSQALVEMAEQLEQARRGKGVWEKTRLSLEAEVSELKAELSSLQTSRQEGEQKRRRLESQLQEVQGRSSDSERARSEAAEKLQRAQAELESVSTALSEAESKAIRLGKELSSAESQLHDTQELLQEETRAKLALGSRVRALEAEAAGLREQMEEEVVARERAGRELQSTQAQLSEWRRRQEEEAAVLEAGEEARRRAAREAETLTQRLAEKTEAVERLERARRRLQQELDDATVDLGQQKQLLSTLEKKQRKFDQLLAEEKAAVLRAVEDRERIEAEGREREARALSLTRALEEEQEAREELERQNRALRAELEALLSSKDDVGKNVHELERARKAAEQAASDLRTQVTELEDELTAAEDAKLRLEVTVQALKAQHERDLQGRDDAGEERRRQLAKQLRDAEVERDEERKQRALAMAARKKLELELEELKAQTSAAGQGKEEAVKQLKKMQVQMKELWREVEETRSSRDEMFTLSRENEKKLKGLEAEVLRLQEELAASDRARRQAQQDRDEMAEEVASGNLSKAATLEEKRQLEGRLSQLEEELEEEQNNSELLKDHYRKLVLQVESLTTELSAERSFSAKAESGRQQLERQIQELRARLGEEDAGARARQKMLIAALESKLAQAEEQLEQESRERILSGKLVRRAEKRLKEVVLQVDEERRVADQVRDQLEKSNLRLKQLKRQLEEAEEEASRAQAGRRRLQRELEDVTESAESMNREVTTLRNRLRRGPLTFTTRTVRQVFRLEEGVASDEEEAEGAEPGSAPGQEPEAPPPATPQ

Experiments:
Assay in all cases: pull-down; GST-fusion fragments of CGN or CGNL1 as baits; NM2 rod fragments purified from bacteria as preys; IB with anti-NM2 antibodies (Fig. S1 C, D); both purified
[1] = molecular target: T1, GST-CGN (1015–1203) (UniProt Q9P2M7)
T1 sequence: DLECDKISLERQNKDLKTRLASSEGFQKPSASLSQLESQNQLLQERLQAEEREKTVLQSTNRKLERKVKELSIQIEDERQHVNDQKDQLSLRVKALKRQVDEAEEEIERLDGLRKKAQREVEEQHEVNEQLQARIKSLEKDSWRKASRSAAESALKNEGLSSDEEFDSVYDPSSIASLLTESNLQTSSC

[2] = molecular target: T2, GST-CGNL1 (591–882), Rod1 of CGNL1 (UniProt Q0VF96)
T2 sequence: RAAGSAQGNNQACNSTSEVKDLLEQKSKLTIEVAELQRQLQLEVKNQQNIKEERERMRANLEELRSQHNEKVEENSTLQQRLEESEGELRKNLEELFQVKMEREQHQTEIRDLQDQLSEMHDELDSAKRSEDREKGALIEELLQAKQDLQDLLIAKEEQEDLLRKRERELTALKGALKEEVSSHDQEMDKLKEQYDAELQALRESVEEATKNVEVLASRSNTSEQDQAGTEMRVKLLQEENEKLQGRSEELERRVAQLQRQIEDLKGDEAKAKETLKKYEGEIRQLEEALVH

[3] = molecular target: T3, GST-hCGNL1 (1105–1302) (human) (UniProt Q0VF96)
T3 sequence: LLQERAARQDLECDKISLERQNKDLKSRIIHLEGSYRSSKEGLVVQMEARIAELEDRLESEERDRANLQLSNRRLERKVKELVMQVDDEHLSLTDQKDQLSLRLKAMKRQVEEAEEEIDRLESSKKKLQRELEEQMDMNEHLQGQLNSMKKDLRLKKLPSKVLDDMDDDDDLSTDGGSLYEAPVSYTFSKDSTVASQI

binding [1]: no binding | binding [2]: no binding | binding [3]: no binding
Substance: mNM2C rod (1297–2000), purified (from UniProt Q6URW6) (domain or fragment)
